# Assay results: PubChem BioAssay AID588590 (National Center for Advancing Translational Sciences (NCATS), 2011)
# Sequences of proteins named here, by UniProt entry; tags and fusion partners are left off. A change or cut given only in a name is not applied to a line headed by its entry.
# UniProt Q9UNA4: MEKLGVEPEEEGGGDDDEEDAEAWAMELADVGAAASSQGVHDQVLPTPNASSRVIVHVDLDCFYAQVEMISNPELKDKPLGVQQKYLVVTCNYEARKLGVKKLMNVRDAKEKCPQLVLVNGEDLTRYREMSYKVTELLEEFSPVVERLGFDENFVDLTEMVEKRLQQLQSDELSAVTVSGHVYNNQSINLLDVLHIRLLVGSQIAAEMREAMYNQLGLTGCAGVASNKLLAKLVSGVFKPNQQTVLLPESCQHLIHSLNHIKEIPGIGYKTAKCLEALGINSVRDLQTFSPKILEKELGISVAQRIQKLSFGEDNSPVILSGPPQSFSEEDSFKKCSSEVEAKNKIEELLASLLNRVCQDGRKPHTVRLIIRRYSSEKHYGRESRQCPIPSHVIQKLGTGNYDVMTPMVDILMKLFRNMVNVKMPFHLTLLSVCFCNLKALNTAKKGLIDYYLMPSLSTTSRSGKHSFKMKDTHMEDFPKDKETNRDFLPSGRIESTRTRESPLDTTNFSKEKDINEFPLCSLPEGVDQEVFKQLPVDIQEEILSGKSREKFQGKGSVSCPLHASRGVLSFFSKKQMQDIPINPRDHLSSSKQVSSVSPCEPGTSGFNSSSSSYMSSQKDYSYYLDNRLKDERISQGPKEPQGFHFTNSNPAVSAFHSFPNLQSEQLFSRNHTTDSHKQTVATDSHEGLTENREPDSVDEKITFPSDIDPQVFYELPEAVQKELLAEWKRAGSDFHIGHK
# Among all 390,000 compounds or so, about 4,000 (1%) were called active. The shares of active, inactive and inconclusive entries below differ from those in the screen. Calls come from the whole dose curve; as a rule, active = well fitted inhibition curve with a large enough effect; inconclusive = small, poorly fitted or top-dose-only effect, or another doubt; inactive = no such curve, though single readings can be large or run the other way. Potencies beside an inconclusive call are fits to weak or partial responses and may not hold up.
# Biological target: DNA polymerase iota (Homo sapiens) (UniProt Q9UNA4)
# Test: qHTS for Inhibitors of Polymerase Iota
# Conditions: Pol iota fluorescent replication assay, 10 min; series mostly up to 115 µM; activity, negative = inhibition: at the top concentration
# Method in brief: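 Pol iota at 10 nM preincubated 15 min with compounds at room temperature; reaction started with fluorescent substrate, 50 nM final. Fluorescence read kinetically at 0 and 10 min; buffer-only wells as negative control.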
# Potency is the fitted concentration of half-maximal effect.
Structure (SMILES),Potency,"activity, negative = inhibition"
COC(=O)c1ccc(COC(=O)c2ccc(CS(=O)(=O)c3ccc(C)cc3)cc2)cc1,"inconclusive: 11.2 µM [inhibitor, single point]",
Cc1nc(C(=O)Nc2cc(F)cc(Cl)c2)sc1C1(C)CC(c2ccccc2)=NO1 (centres undefined),"inconclusive: 39.8 µM [inhibitor, single point]",
COc1ccc(S(=O)(=O)N2CCN(c3ccc4nnc(-c5ccc(F)cc5)n4n3)CC2)cc1,"inconclusive: 39.8 µM [inhibitor, single point]",
COc1ccccc1N(CC(=O)NCc1ccco1)S(=O)(=O)c1ccc(C)cc1,active: 5.62 µM,
COc1ccc(/C=N/NC(=O)c2nc(-c3ccccc3)cc(-c3ccccc3)n2)cc1O,"inconclusive: 15.8 µM [inhibitor, partial curve, poor fit]",
O=C(/C=C/c1ccc([N+](=O)[O-])cc1)OCC(=O)c1ccc[nH]1,"inconclusive: 35.5 µM [inhibitor, partial curve, poor fit]",
C[C@@H]1CN(C(=O)c2nc3ccc(Cl)cn3c2CN[C@H]2CCCCNC2=O)C[C@H](C)O1,"inconclusive: 39.8 µM [inhibitor, partial curve, poor fit]",
COc1ccc(C[C@H]2CN3C(=NC[C@@H]3C)N2CCNC(=O)CCC2CCCCC2)cc1,"inconclusive: 89.1 µM [inhibitor, single point]",
C=CC(=O)N1C/C(=C/c2ccccc2)C(=O)/C(=C\c2ccccc2)C1,"inconclusive: 14.1 µM [inhibitor, full curve, poor fit]",
CCC(=O)N(C)/C=C1\Sc2ccccc2C1=O,,inactive: 9.31%
Cc1cnc(C(=O)Nc2ccccc2F)cn1,"inconclusive: 2.82 µM [inhibitor, partial curve, poor fit]",
Cc1cccc(NC(=O)CSc2nsc(SCC(=O)Nc3cccc(C)c3)c2C#N)c1,"inconclusive: 56.2 µM [inhibitor, single point]",
O=C(Cn1c(=O)n(-c2ccc(Cl)cc2)c(=O)c2sc3ccccc3c21)NC1CCCC1,,inactive: 28.7%
Cc1ccc(S(=O)(=O)Cc2ccc(C(=O)N3CCN(c4cccc(Cl)c4)CC3)o2)cc1,"inconclusive: 89.1 µM [inhibitor, single point]",
Cc1nnc(N=c2ssnc2Cl)o1,"inconclusive: 20 µM [inhibitor, partial curve, poor fit]",
Nc1ccc(C(=O)N/N=C\c2ccc(OC(=O)c3ccccc3Cl)cc2)cc1,"inconclusive: 79.4 µM [inhibitor, partial curve, poor fit]",
CCOc1ccc(S(=O)(=O)Nc2cc(F)ccc2F)c2cccnc12,"inconclusive: 14.1 µM [inhibitor, full curve, poor fit]",
N=C(N)SCc1ccc(O)c([N+](=O)[O-])c1,"inconclusive: 35.5 µM [inhibitor, single point]",
C/C=C(\CS(=O)(=O)c1ccccc1)S(=O)(=O)c1ccccc1,"inconclusive: 8.91 µM [inhibitor, partial curve, poor fit]",
COCC(C)n1c(C)cc(C(=O)COC(=O)c2c(NC(C)=O)sc(C)c2C)c1C (centres undefined),"inconclusive: 12.6 µM [inhibitor, partial curve, poor fit]",
COc1ccc(COC[C@H](C)[C@H](O[Si](C)(C)C)[C@@H](C)[C@H]2OC(=O)[C@H]2C)cc1,"inconclusive: 100 µM [inhibitor, single point]",
COc1ccc(CCNC(=O)c2ccc3c(c2)N(Cc2ccc(F)cc2)C(=O)CS3)cc1OC,,inactive: -4.61%

# Retrieved by structure from the entries so far, 3 records:
Structure (SMILES),Potency,"activity, negative = inhibition"
CCOc1ccc(S(=O)(=O)Nc2cc(F)ccc2F)c2cccnc12,"inconclusive: 14.1 µM [inhibitor, full curve, poor fit]",
C=CC(=O)N1C/C(=C/c2ccccc2)C(=O)/C(=C\c2ccccc2)C1,"inconclusive: 14.1 µM [inhibitor, full curve, poor fit]",
C/C=C(\CS(=O)(=O)c1ccccc1)S(=O)(=O)c1ccccc1,"inconclusive: 8.91 µM [inhibitor, partial curve, poor fit]",

# Carrying on.

Structure (SMILES),Potency,"activity, negative = inhibition"
C=CCNC(=S)NC(=O)c1ccc(C)c(Br)c1,,inactive: 17.3%
CCOC(=O)c1c(-c2ccccc2)oc2ccc(N(C(C)=O)S(=O)(=O)c3ccc(CC)cc3)cc12,,inactive: 15.7%
Cn1c(SCc2cc(=O)n3cc(Br)ccc3n2)nnc1C1COc2ccccc2O1 (centres undefined),"inconclusive: 20 µM [inhibitor, full curve, poor fit]",
CCC(=O)N1CCc2cc(S(=O)(=O)NC(CC(C)C)C(=O)NCCc3ccccc3)ccc21 (centres undefined),"inconclusive: 89.1 µM [inhibitor, partial curve, poor fit]",
CC12CCC(=O)N1C(C(=O)Nc1cc(S(=O)(=O)N3CCCCCC3)ccc1OCC(F)(F)F)CS2 (centres undefined),,inactive: 47%
COc1ccc(CCN2C(=O)CC(N3CCN(S(=O)(=O)c4ccccc4)CC3)C2=O)cc1OC (centres undefined),"inconclusive: 20 µM [inhibitor, partial curve]",
Cc1cccc(C(=O)OCC(=O)c2ccc3c(c2)NC(=O)CO3)c1,"inconclusive: 100 µM [inhibitor, single point]",
O=C(Nc1ccc(S(=O)(=O)Nc2nccs2)cc1)c1nn(-c2ccc(F)cc2)ccc1=O,active: 35.5 µM,
COc1ccccc1N1CCN(CCCCOc2ccc(F)cc2)CC1,"inconclusive: 22.4 µM [inhibitor, partial curve, poor fit]",
CC(=O)c1c(C)nc2ccc(Br)cc2c1C(=O)O,"inconclusive: 79.4 µM [inhibitor, partial curve]",
CN(C)c1ccc(/C=N/NC(=O)C(=O)/C=C2\NC3(CCCC3)Cc3ccccc32)cc1,"inconclusive: 79.4 µM [inhibitor, partial curve, poor fit]",
Fc1ccc2nc(Nc3nc4cc5c(cc4s3)OCO5)sc2c1,"inconclusive: 89.1 µM [inhibitor, partial curve, poor fit]",
CCOC(=O)c1cccc(NC(=O)c2cc3ccccn3n2)c1,,inactive: 35.5%
COc1ccc2sc(N(Cc3cccnc3)C(=O)C3CCCCC3)nc2c1,,inactive: -11.2%
O=C(Cn1c(=O)n(CC2CCC(C(=O)NCCc3ccccc3)CC2)c(=O)c2ccccc21)Nc1ccccc1 (centres undefined),"inconclusive: 89.1 µM [inhibitor, partial curve, poor fit]",
O=[N+]([O-])c1c(NCc2ccco2)ccc2nonc12,,inactive: 63.1%
Cc1cccc(Cn2cccc2CNS(=O)(=O)c2ccccc2F)c1,"inconclusive: 89.1 µM [inhibitor, single point]",
CCc1ccc(NC(=O)CN2C(=O)C(c3ccc(C)cc3)=NC23CCCCC3)cc1,,inactive: 27.6%
O=C(O)c1ccc(NC2=C(n3nnc4ccccc43)C(=O)c3ccccc3C2=O)cc1,active: 39.8 µM,
COc1cc(C2c3sc(=O)[nH]c3SC3C(=O)N(c4ccc(Br)cc4)C(=O)C32)ccc1O (centres undefined),"inconclusive: 17.8 µM [inhibitor, single point]",
Cc1ccc(N=Cc2ccc[nH]2)c(O)c1,"inconclusive: 28.2 µM [inhibitor, single point]",
COc1cc2c(NC3CCN(C)CC3)nc(N3CCCN(C)CC3)nc2cc1O,,inactive: 16%

Structure (SMILES),Potency,"activity, negative = inhibition"
CC(C)(C)NC(=O)Nc1ccc(Cn2cc(C(F)(F)F)ccc2=O)cc1,,inactive: 97.9%
CCOC(=O)C1=C(C)NC(=O)NC1c1ccco1 (centres undefined),active: 44.7 µM,
CC(C)(C)C(=O)Nc1nc2cc3c(cc2s1)OCO3,"inconclusive: 79.4 µM [inhibitor, single point]",
CCOC(=O)c1ccc(NC(=S)NC2CCCC2)cc1,"inconclusive: 89.1 µM [inhibitor, single point]",
COC(C(=O)C(O)C(C)O)C1Cc2cc3cc(OC4CC(OC5CC(O)C(O)C(C)O5)C(O)C(C)O4)c(C)c(O)c3c(O)c2C(=O)C1OC1CC(OC2CC(OC3CC(O)C(OC)C(C)O3)C(O)C(C)O2)C(O)C(C)O1 (centres undefined),active: 22.4 µM,
Cc1ccccc1NC(=O)COC(=O)c1ccccc1OCC(=O)Nc1ccc(Br)cc1,,inactive: 6.4%
Cc1cccc(NS(=O)(=O)c2ccc3[nH]c4c(c3c2)CCCCCC4)c1,"inconclusive: 89.1 µM [inhibitor, single point]",
CNC(=S)NCc1ccc(Cl)cc1,"inconclusive: 14.1 µM [inhibitor, full curve, poor fit]",
Cc1ccc2c(c1)N(C(=O)N1CCC(C(=O)NCCc3ccc(Cl)cc3)CC1)CC(C)O2 (centres undefined),"inconclusive: 79.4 µM [inhibitor, single point]",
Nc1ccc(Nc2nc3ccccc3[nH]2)cc1,,inactive: 70.5%
Cc1ccc(C)c(N2CCN(C(=O)c3cc4c(=O)n(Cc5ccccc5)ccc4nc3C)CC2)c1,,inactive: 1.88%
Cc1c(C(=O)O)sc2nc(CSc3nnc(-c4ccc(F)cc4)n3C)[nH]c(=O)c12,"inconclusive: 14.1 µM [inhibitor, full curve, poor fit]",
Cc1ccc(C)n1-c1cc(S(=O)(=O)N2CCOCC2)ccc1N1CCCC1,"inconclusive: 70.8 µM [inhibitor, partial curve, poor fit]",
COc1ccc(NC(=O)c2cc(-c3ccc(C)o3)nc3ccccc23)cc1OC,"inconclusive: 15.8 µM [inhibitor, full curve, poor fit]",
CCN1c2cccc3cccc(c23)S1(=O)=O,"inconclusive: 89.1 µM [inhibitor, partial curve, poor fit]",
Cc1cc2ccccc2c(=O)n1CC(=O)NCC(=O)N1CCN(c2ccccc2F)CC1,,inactive: -0.445%
O=S(=O)(c1ccc(Cl)cc1)N1CCn2c1nc1ccccc12,"inconclusive: 100 µM [inhibitor, single point]",
Cc1ccc(C(c2nnnn2Cc2cccs2)N2CCN(Cc3ccc4c(c3)OCO4)CC2)cc1 (centres undefined),"inconclusive: 11.2 µM [inhibitor, single point]",
Cc1ccc2cc3cc(C(=O)NCc4ccco4)oc3nc2c1,"inconclusive: 15.8 µM [inhibitor, full curve, poor fit]",
Cc1ccc(-c2cc(C(=O)N/N=C/C(Br)=C/c3ccccc3)n[nH]2)o1,"inconclusive: 14.1 µM [inhibitor, full curve]",
